For one molecule, binding results are on record in PMC5788916, “The SAM domain of mouse SAMHD1 is critical for its activation and regulation” (Nature Communications, 2018).

The test deals with mouse SAMHD1 HD domain, isoform 1 (residues 145-658) (mouse) (UniProt Q60710). Description: condition: only in the absence of allosteric nucleotides; SEC; Superdex 200 10/300 GL; 2 mg/ml, 200 ul; 50 mM Tris-HCl pH 8.0, 150 mM NaCl, 5 mM MgCl2, 0.5 mM TCEP; no nucleotides added; both purified.

Results are given in words; binding and its absence hold for the method and conditions named.

B1: mouse SAMHD1 HD domain, isoform 1 (residues 145-658) (domain or fragment, UniProt Q60710 145-658, looked up)
chain: DLMKVFNDPIHGHIEFHPLLIRIIDTPQFQRLRYIKQLGGGYYVFPGASHNRFEHSLGVGYLAGCLVRALAEKQPELQISERDILCVQIAGLCHDLGHGPFSHMFDGRFIPRARPEKKWKHEQGSIEMFEHLVNSNELKLVMKNYGLVPEEDITFIKEQIMGPPITPVKDSLWPYKGRPATKSFLYEIVSNKRNGIDVDKWDYFARDCHHLGIQNNFDYKRFIKFARICEVEYKVKEDKTYIRKVKHICSREKEVGNLYDMFHTRNCLHRRAYQHKISNLIDIMITDAFLKADPYVEITGTAGKKFRISTAIDDMEAFTKLTDNIFLEVLHSTDPQLSEAQSILRNIECRNLYKYLGETQPKREKIRKEEYERLPQEVAKAKPEKAPDVELKAEDFIVDVINVDYGMEDKNPIDRVHFYCKSNSKQAVRINKEQVSQLLPEKFAEQLIRVYCKKKDGKSLDAAGKHFVQWCALRDFTKPQDGDIIAPLITPLKWNNKTSSCLQEVSKVKTCLKF
notes: mouse SAMHD1 isoform 1, HD domain without the SAM domain, residues 145-658; The text speaks of 'mHD' and gives limits for both isoforms; source: E. coli BL21 (DE3), purified (Ni-NTA, size-exclusion chromatography)
For B1, the binding result was “no binding”.
